Source: paper PMC6006247
No constants are given. Whether binding was seen depends on the method and setting.

Protein sequences, listed by entry. Tags and fused reporters are not part of them. Lines headed by an entry give the natural chain unless they say otherwise; changes in a name come on top. Chains listed by the source or under a name are the forms on record and can include a tag or linker.
human Top2α ATPase domain (residue 29 to 428) bearing the K168A mutation (P11388, form named): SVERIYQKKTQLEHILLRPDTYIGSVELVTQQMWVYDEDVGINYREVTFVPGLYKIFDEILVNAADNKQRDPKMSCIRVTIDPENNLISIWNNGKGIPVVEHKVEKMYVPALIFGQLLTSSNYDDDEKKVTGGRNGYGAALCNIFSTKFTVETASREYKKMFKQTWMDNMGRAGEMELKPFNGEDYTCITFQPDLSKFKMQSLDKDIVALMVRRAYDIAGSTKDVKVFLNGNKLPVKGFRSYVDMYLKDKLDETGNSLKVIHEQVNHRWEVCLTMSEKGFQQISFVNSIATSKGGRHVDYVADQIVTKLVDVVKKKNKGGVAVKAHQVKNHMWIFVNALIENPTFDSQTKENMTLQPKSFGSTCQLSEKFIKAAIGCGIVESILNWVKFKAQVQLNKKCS

Experiments:
[1] = target: human Top2α ATPase domain (residue 29 to 428) bearing the K168A mutation (human) (UniProt P11388); experiment: SEC; analytical gel filtration, Superdex200 10/300 GL; protein at 1.0 mg/ml with an excess of AMP-PNP (1 mM in the legend); 20 mM Tris-HCl pH 8.0, 5 mM MgCl2, 200 mM NaCl, 0.1 mM BME; 0.3 ml/min; both purified
[2] = target: human Top2α ATPase domain (residue 29 to 428) bearing the K168A mutation (human) (UniProt P11388); experiment: SEC; analytical gel filtration, Superdex200 10/300 GL; protein at 1.0 mg/ml without AMP-PNP; 20 mM Tris-HCl pH 8.0, 5 mM MgCl2, 200 mM NaCl, 0.1 mM BME; 0.3 ml/min; both purified

binding [1]: no binding (tested: 1.0 mg/ml) | binding [2]: no binding (tested: 1.0 mg/ml)
Substance: human Top2α ATPase domain (residue 29 to 428) bearing the K168A mutation (from UniProt P11388 29-428) (domain or fragment)
